Results are given in words; binding and its absence hold for the method and conditions named. Binding seen in cells or lysates may run through a third protein. A yes stands for co-enrichment or nearness to the bait. Other partners may have been found. For part of these data: Tags and fused reporters may be left off the sequences shown. Values belong to the binder of their own block, whether it stands above or below them.
What was measured:
[1] = target: T1, PWWP2A purified from HeLa cells (UniProt Q96N64); experiment: affinity purification with mass spectrometry; purification of PWWP2A-associated proteins from HeLa under high salt (500 mM NaCl); mass spectrometry
T1 sequence: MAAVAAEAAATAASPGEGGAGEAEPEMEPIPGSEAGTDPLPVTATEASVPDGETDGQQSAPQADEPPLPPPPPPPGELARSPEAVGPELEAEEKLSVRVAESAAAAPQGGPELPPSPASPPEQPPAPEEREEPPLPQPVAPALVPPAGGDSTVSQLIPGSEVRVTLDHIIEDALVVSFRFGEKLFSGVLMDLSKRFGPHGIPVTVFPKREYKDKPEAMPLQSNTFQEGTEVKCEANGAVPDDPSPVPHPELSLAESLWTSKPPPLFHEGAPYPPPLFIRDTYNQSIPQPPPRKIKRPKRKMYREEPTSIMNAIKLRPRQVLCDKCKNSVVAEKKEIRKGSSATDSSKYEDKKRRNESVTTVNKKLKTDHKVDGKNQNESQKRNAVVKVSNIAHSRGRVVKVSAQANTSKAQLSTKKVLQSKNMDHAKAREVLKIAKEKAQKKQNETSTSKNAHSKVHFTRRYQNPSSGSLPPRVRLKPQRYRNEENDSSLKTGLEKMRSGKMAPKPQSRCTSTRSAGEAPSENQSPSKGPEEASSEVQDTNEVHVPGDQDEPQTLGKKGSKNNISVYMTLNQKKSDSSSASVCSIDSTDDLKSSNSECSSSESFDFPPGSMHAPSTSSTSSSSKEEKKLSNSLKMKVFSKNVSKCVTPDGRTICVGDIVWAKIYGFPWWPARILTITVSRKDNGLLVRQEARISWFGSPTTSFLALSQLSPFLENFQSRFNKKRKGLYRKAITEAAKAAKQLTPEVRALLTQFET

[2] = target: T2, Flag-2xStrepII (FS2) tagged full-length PWWP2A, Q96N64; experiment: affinity purification with mass spectrometry; Streptactin agarose purification of the FS2-tagged bait from 15 mg benzonase-treated mESC nuclear extract; washes 8 x 15 min in 500 mM NaCl, 0.2% NP-40; desthiobiotin elution; LC-MS/MS (Mascot, 1% FDR); conditions: remark: other sources report otherwise
T2 chain: T1 sequence

[3] = target: T3, FS2-PWWP2B (UniProt Q6NUJ5); experiment: as above
T3 sequence: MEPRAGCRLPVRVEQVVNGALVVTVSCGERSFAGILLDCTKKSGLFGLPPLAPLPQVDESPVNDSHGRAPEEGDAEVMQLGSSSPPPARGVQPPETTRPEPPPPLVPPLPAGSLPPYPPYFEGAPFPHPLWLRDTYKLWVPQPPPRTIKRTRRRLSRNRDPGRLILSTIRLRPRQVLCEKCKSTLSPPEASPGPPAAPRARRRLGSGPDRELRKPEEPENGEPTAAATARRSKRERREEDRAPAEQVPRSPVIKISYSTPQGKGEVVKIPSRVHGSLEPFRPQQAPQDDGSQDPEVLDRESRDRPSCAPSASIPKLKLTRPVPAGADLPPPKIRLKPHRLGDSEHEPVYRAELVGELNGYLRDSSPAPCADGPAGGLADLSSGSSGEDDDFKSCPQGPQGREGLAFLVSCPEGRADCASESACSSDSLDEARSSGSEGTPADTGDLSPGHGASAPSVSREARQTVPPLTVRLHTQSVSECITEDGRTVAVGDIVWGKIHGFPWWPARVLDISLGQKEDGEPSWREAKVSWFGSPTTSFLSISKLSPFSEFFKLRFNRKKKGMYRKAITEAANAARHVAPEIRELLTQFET

binding [1]: binds
B1: PWWP2B co-purified with PWWP2A (protein, UniProt Q6NUJ5 1-590)
chain: T3 sequence

binding [2]: binds
B2: MTA2, endogenous in mESCs, Q9R190 1-668 (protein)
chain: MAANMYRVGDYVYFENSSSNPYLVRRIEELNKTANGNVEAKVVCLFRRRDISSSLNSLADSNAREFEEESKQPGVSEQQRHQLKHRELFLSRQFESLPATHIRGKCSVTLLNETDILNQYLDKEDCFFYSLVFDPVQKTLLADQGEIRVGCKFQAEIPDRLAEGESDNRNQQKMEMKVWDPDNPLTDRQIDQFLVVARAVGTFARALDCSSSIRQPSLHMSAAAASRDITLFHAMDTLQRNGYDLAKAMSTLVPQGGPVLCRDEMEEWSASEAMLFEEALEKYGKDFNDIRQDFLPWKSLASIVQFYYMWKTTDRYIQQKRLKAAEADSKLKQVYIPTYTKPNPNQIISVGSKPGMNGAGFQKGLTCESCHTTQSAQWYAWGPPNMQCRLCASCWIYWKKYGGLKTPTQLEGAARGTTEPHSRGHLSRPEAQSLSPYTTSANRAKLLAKNRQTFLLQTTKLTRLARRMCRDLLQPRRAARRPYAPINANAIKAECSIRLPKAAKTPLKIHPLVRLPLATIVKDLVAQAPLKPKTPRGTKTPINRNQLTQNRGLGGIMVKRSYETMAGAGVPFSANGRPLASGIRSSSQPAAKRQKLNPADAPNPVVFVATKDTRALRKALTHLEMRRAARRPNLPLKVKPTLMTVRPPVPLPASSHPASTNEPIVLED

binding [3]: binds
B3: PWWP2A co-purified with PWWP2B (protein, UniProt Q69Z61 1-730)
chain: MAAVAAEAAATAASPGEGGAGEAEPELEPIPGSEAGTPLPVTATEAAVPDGEADGRQSAPQADEQPLPPPPPPPPPGELADSSEAEEAKPPEPAAVPVSPPEQPPAAPEQPEDAPRPPPAPALVPPAGGDSAVSHLIPGSEVRVTLDHIIEDALVVSFRLGEKLFSGVLMDLSKRFGPHGIPVTVFPKREYKDKPDAMQLQSTTFQEGIEVKQEVNGAVPDDLSPVPPPERLWASKPPPLFHEGAPYPPPLFIRDTYNQSIPQPPPRKIKRPKRKMYREEPTSIMNAIKLRPRQVLCDKCKNSVVAEKKEIRKGSSDSSRYEDKKRRNDSVATVNKKLKTDHKVDGKNQNESQRRNTVVRVSSIAHSRGRVVKVSAQANTSKAQLNTKKVLQSKNMDHAKAREVLKIAKEKAQKKQSETSTSKTAHAKVHFTRRYQSPSSGSLPPRVRLKPQRYRNEENDSSLKTGLEKIRSGKLAPKPQSRCTSTRSAGEAPSEKPSPSEGPEESAGEVQDTSRVRVPGEQEELRMLGKKGSKSSISVYLTLNQETSDSSSASVCSIDSMDDLKSSNSECSSSESFVFPPGCMHAPSASSTSTSFSSKEENSLRNSLKMKIFSKNVSKCITPDGRTICVGDIVWAKIYGFPWWPARILTITVSRKDNGLLARQEARISWFASPTTSSLALSQLSPFLENFQLRFNKKRKGLYRRAITEAAKAAKQLTPEVRALLTQFET

From publication PMC6143588, “A variant NuRD complex containing PWWP2A/B excludes MBD2/3 to regulate transcription at active genes” (Nature Communications, 2018)
